No constants are given. Whether binding was seen depends on the method and setting. Binding seen in cells or lysates may run through a third protein. Some binding calls cover weakened binding; strength is not graded here. Tags and fused reporters may be left off the sequences shown.
B1: POC5^266-575-HA (C-terminal fragment of POC5) (domain or fragment, UniProt Q8NA72 266-575)
chain: VYEGKLADQYYQRTLLKKVWKVWRSVVQKQWKDVVERACQARAEEVCIQISNDYEAKVAMLSGALENAKAEIQRMQHEKEHFEDSMKKAFMRGVCALNLEAMTIFQNRNDAGIDSTNNKKEEYGPGVQGKEHSAHLDPSAPPMPLPVTSPLLPSPPAAVGGASATAVPSAASMTSTRAASASSVHVPVSALGAGSAATAASEEMYVPRVVTSAQQKAGRTITARITGRCDFASKNRISSSLAIMGVSPPMSSVVVEKHHPVTVQTIPQATAAKYPRTIHPESSTSASRSLGTRSAHTQSLTSVHSIKVVD
B2: MDM1-HA (protein, UniProt Q8TC05 1-714)
chain: MPVRFKGLSEYQRNFLWKKSYLSESCNSSVGRKYPWAGLRSDQLGITKEPSFISKRRVPYHDPQISKSLEWNGAISESNVVASPEPEAPETPKSQEAEQKDVTQERVHSLEASRVPKRTRSHSADSRAEGASDVENNEGVTNHTPVNENVELEHSTKVLSENVDNGLDRLLRKKAGLTVVPSYNALRNSEYQRQFVWKTSKETAPAFAANQVFHNKSQFVPPFKGNSVIHETEYKRNFKGLSPVKEPKLRNDLRENRNLETVSPERKSNKIDDRLKLEAEMELKDLHQPKRKLTPWKHQRLGKVNSEYRAKFLSPAQYLYKAGAWTHVKGNMPNQVKELREKAEFYRKRVQGTHFSRDHLNQILSDSNCCWDVSSTTSSEGTVSSNIRALDLAGDPTSHKTLQKCPSTEPEEKGNIVEEQPQKNTTEKLGVSAPTIPVRRRLAWDTENTSEDVQKQPGEKEEEDDNEEEGDRKTGKQAFMGEQEKLDVREKSKADKMKEGSDSSVSSEKGGRLPTPKLRELGGIQRTHHDLTTPAVGGAVLVSPSKMKPPAPEQRKRMTSQDCLETSKNDFTKKESRAVSLLTSPAAGIKTVDPLPLREDSEDNIHKFAEATLPVSKIPKYPTNPPGQLPSPPHVPSYWHPSRRIQGSLRDPEFQHNVGKARMNNLQLPQHEAFNDEDEDRLSEISARSAASSLRAFQTLARAKKRKENFWGKT
B3: POC5^1-471-HA (N-terminus of POC5) (domain or fragment, UniProt Q8NA72 1-471)
chain: MSSDEEKYSLPVVQNDSSRGSSVSSNLQEEYEELLHYAIVTPNIEPCASQSSHPKGELVPDVRISTIHDILHSQGNNSEVRETAIEVGKGCDFHISSHSKTDESSPVLSPRKPSHPVMDFFSSHLLADSSSPATNSSHTDAHEILVSDFLVSDENLQKMENVLDLWSSGLKTNIISELSKWRLNFIDWHRMEMRKEKEKHAAHLKQLCNQINELKELQKTFEISIGRKDEVISSLSHAIGKQKEKIELMRTFFHWRIGHVRARQDVYEGKLADQYYQRTLLKKVWKVWRSVVQKQWKDVVERACQARAEEVCIQISNDYEAKVAMLSGALENAKAEIQRMQHEKEHFEDSMKKAFMRGVCALNLEAMTIFQNRNDAGIDSTNNKKEEYGPGVQGKEHSAHLDPSAPPMPLPVTSPLLPSPPAAVGGASATAVPSAASMTSTRAASASSVHVPVSALGAGSAATAASEEMYV

Legend:
[1] = biological target: T1, POC1A-FLAG (full-length POC1A, FLAG-tagged) (human) (UniProt Q8NBT0); experiment: co-IP; FLAG IP from HEK293T cells co-expressing FLAG-tagged POC1 constructs (bait) and HA-tagged partners (prey), Dox-induced, harvested after 24 h; lysis 150 mM NaCl, 10 mM Tris-Cl pH 7.5, 0.5 mM EDTA, 0.5% NP-40, Benzonase; beads 1 h at 4 °C; washes 300 mM NaCl; elution with FLAG peptide; immunoblot
T1 sequence: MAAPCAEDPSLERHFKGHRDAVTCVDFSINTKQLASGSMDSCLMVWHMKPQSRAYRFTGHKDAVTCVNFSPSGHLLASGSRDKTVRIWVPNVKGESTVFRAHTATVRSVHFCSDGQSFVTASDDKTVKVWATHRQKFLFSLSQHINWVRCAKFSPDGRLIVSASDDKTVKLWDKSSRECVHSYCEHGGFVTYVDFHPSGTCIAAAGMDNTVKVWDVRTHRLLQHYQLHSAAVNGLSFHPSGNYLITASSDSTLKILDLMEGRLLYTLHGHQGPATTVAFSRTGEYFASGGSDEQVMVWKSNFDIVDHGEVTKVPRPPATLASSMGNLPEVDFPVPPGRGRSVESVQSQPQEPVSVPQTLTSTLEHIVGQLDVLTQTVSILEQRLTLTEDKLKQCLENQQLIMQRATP

[2] = biological target: T2, POC1B-FLAG (full-length POC1B, FLAG-tagged) (human) (UniProt Q8TC44); experiment: as above
T2 sequence: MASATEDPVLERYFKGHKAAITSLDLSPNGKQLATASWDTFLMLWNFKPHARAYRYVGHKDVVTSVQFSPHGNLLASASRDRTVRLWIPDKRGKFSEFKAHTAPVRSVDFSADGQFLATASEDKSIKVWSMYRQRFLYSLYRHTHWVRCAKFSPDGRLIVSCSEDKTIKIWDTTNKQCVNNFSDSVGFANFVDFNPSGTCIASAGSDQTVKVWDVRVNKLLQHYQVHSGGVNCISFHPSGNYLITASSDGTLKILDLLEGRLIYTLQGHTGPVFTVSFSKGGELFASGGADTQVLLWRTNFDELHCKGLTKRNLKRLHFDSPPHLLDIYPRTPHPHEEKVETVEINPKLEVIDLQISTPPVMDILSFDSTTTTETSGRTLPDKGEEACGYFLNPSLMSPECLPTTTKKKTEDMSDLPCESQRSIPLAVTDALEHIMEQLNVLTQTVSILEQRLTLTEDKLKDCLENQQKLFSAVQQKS

| Binder | binding [1] | binding [2] |
| --- | --- | --- |
| B1 | binds |  |
| B2 | binds | binds |
| B3 | no binding |  |
